Experimental data reported in PubChem BioAssay AID1508600 (Functional Genomics Laboratory (NCATS/FGL), 2020).
Screen size: about 53,000 sequences; about 3,700 (7%) were called active.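 The calls were made as follows: active = gene knockdowns whose robust z-score for IL-1 alpha signal is at least 2 or at most -2, so actives lie on both sides; inactive = the rest.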 Some of the results follow.

Assay: Components of the Cytosolic LPS Sensing Pathway: Gene Identification via Genome-wide siRNA Screen;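 also: robust z of the log signal after scaling to non-targeting control siRNA wells of the plate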
Conditions: RAW264.7 macrophages, IL-1a HTRF, actives lie on both sides, screened at 100 nM (by protocol), cells primed 5 h with Pam3CSK4 first
Outline: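 IL-1a HTRF of supernatants after 24 hour LipidA transfection of Pam3CSK4-primed (5 hours) RAW264.7 cells, 48h post-siRNA transfection (100 nM). Scores: percent of plate negative-control median, then log-based robust z-score.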

| Sequence | z-score |
| --- | --- |
| GGCUGAUUUGCAUAUCGGGTT against Ethe1 | inactive: -0.799 |
| GGAACUCAAACUUUUCGUATT against Map1b | inactive: 0.509 |
| GUCUCUCUUUUAACAUGCUTT against Ceacam13 | inactive: -0.176 |
| GCAUGAAUUUUGCACGGACTT against Rad18 | inactive: 1.04 |
| GGGCUCUUUUUCUAGGAAATT against Fam155a | inactive: -0.247 |
| GGCUGACUACAAUUUAAUCTT against Slitrk4 | inactive: 0.472 |
| GGACACCUAUCUUGUCCGGTT against Cyb5rl | inactive: 0.935 |
| GGAAUUUUGCCAGCAAAUGTT against Edaradd | inactive: 0.624 |
| CCCUCUCUACGUGAUUCAATT against Brd2 | inactive: 0.189 |
| GGAUGACUAGACAGGAAAATT against Ptma | inactive: 0.397 |
| CCUGGAGUGAAGUACAAAUTT against Zfp458 | inactive: -0.642 |
| GCGGGAAGCCUUUAUCUCUTT against Aanat | inactive: 0.199 |
| GGCUUCGACUGUUGAGAUUTT against Septin2 | inactive: -0.786 |
| GCUCAGUCAUGUCUUGUGCTT against Tagap | inactive: -0.624 |
| GGGCUGUUUUUACAAAACATT against Fam155a | inactive: -0.746 |
| GGACAAUUUAUUCCAGUUUTT against Dlx1 | inactive: -1.44 |
| GGUACACUAUGAGGUCUGCTT against Traf2 | active: 2.07 |
| GGCCUGUCUGAGCUUAACATT against Cmtm3 | inactive: 0.861 |
| GGUGAUUCCCGAUUAUGUGTT against Ercc1 | inactive: -1.34 |
| GCGAGAUGCGUUCAUGGACTT against Srcin1 | inactive: 0.176 |
| CGAACUUGAGAAUCUUAGATT against Ano10 | inactive: 0.305 |
| GGACUCAGAAGUGAACAUATT against Spata7 | inactive: -0.916 |
| GGCUGUCUCAGAGAAGAAATT against Phxr1 | inactive: -1.33 |
| CGGAUGUUCCAUUUGCUGATT against Sprr2g | inactive: -1.15 |
| GGACCAGCUGAAGAUGGGATT against Pced1b | inactive: -1.1 |
| GGAACACAUUGGGUAUGCCTT against Sac3d1 | inactive: -0.575 |
| CCUUAAGCUAUCAAAUAAGTT against Zfp131 | inactive: 1.94 |

An excerpt of these results, in CSV form.
Sequence,z-score
GCAUGAAUUUUGCACGGACTT against Rad18,inactive: 1.04
GGGCUCUUUUUCUAGGAAATT against Fam155a,inactive: -0.247

The list goes on.

| Sequence | z-score |
| --- | --- |
| CCUGAUGUAGAAGCAUACUTT against Tmem9b | inactive: 1.25 |
| CGAUUGGAAUGACCGAGAGTT against Srrt | inactive: -1.36 |
| GGCAGGAACUACCUCUUCATT against Sema5b | inactive: -0.531 |
| GGACUUAAGUAAGAUGAAGTT against Med15 | inactive: -1.05 |
| GGGCAUGGAUUUUAUCCACTT against Ccdc93 | inactive: 1.93 |
| GGGAUCAGAACAAGUAUAATT against Klc1 | inactive: 0.257 |
| GGUGAAUAUUUCAAUGGCCTT against Klhdc4 | inactive: 1.1 |
| CGGAUGUUCGUGUUAAAAATT against Plek | inactive: 0.92 |
| CCCUGAUCAUGUUUUGUCCTT against Mrps24 | inactive: -0.321 |
| GGAAAAAUAGGGUGUUUUGTT against Tdg | inactive: 1.96 |
| GCUAUGUCAUCGAGGUCCUTT against Smco1 | inactive: 0.846 |
| GCAUCCUGAUCACUUAACATT against Cep170 | inactive: -0.732 |
| CGUGAGCAGUCAAACCCAGTT against Il27ra | inactive: -0.0611 |
| CCCACAUAAAUAAGUUGGUTT against Olfr996 | inactive: -1.02 |
| GGCGAGUUCUACAGUUACUTT against Cherp | inactive: 0.195 |
| CGAAUCACUGCUGUUCCAUTT against 5830411N06Rik | inactive: 0.625 |
| GGUCUCCUGAUGGAGAAGATT against Muc5b | inactive: -0.261 |
| GGAAGAUGACCUCAUCCACTT against Crlf2 | inactive: 0.44 |
| GAGUUACUGGAAUUAAAGGTT against Nrg4 | inactive: 1.93 |
| GCUAACUAACGAGAUGAUUTT against T | inactive: -1.21 |
| GGAAAGAUGAGAUCCUAGGTT against Fermt3 | inactive: 1.15 |
| GCAGAUCCAAGAACAUAAGTT against Acrbp | inactive: -0.239 |
| GGACUUGGUGCACUGAAGUTT against Lrig3 | inactive: 0.987 |
| GGCUAUUUUUCAGGUUCCUTT against Olfr747 | inactive: 1.24 |
| CUAAAUGCCUCCUACCUUUTT against Krtap4-16 | inactive: 1.89 |
| CCAAUAAGGUCGUUUCUAUTT against Olfr589 | inactive: -1.58 |

A stretch of the results above, for reference:

| Sequence | z-score |
| --- | --- |
| GGCAGGAACUACCUCUUCATT against Sema5b | inactive: -0.531 |
| GGACUUAAGUAAGAUGAAGTT against Med15 | inactive: -1.05 |
